# Laboratory results published in PubChem BioAssay AID1347075 (National Center for Advancing Translational Sciences (NCATS), 2019).
# The whole screen tested about 400,000 compounds, of which about 5,500 (1.4%) were called active. Inconclusive means that the source gave no clear call. Such entries were picked first, then a sample of the others. Calls come from the whole dose curve; as a rule, active = well fitted cell-killing curve with a large enough effect; inconclusive = small, poorly fitted or top-dose-only effect, or effect the other way; inactive = flat fitted curve, though single readings scatter. Potencies of inconclusive entries are doubtful fits and often do not repeat.
# Experiment: qHTS assay for MDR1-selective chemotherapeutics: Primary screen using the parental adenocarcinoma cell KB-3-1; note: nearly all actives have a fitted effect of over 60% in size
# Settings: KB-3-1 viability, CellTiter-Glo ATP luminescence, 72 h; activity change, negative = cytotoxic: at 46.1 µM (top of the series)
# Outline: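 Multi-concentration cytotoxicity screen in KB-3-1 cells grown in DMEM lacking phenol red with 10% FBS. After 72 h at 37 °C with compound, ATP-dependent luminescence was recorded.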
# % is set by controls: 0 for no effect and ±100 for the full control effect; potency is the fitted concentration of half-maximal effect.
Structure (SMILES),Potency,"activity change, negative = cytotoxic"
CCCCn1c(O)c(N=NC(=O)c2ccncc2)c2cc(Br)ccc21,inactive,
CC(C)C[C@H](NC(=O)N1CC(=O)Nc2ccccc21)C(=O)N1CCC[C@H]1C(=O)O,inactive,
COc1cccc(/C=N\NC(=O)c2ccc(Cn3cc(Br)c([N+](=O)[O-])n3)o2)c1O,"inconclusive: 23.1 µM [cytotoxic, partial curve, poor fit]",
Cc1ccc(Cn2nnc3c(=O)n(CC(=O)OCc4ccccc4)cnc32)cc1,inactive,
Cn1c(N2CCCCC2)nc2c1c(=O)[nH]c(=O)n2C,inactive,
COc1ccc(-c2cnnn2-c2ccc(NC(=O)c3ccc(S(=O)(=O)N(C)C)cc3)cc2)cc1,"inconclusive: 29.1 µM [cytotoxic, single point]",
CCc1ccc(/C(C)=N/NC(=O)c2c[nH]c3ccccc23)s1,"inconclusive: 16.4 µM [cytotoxic, partial curve, poor fit]",
O=S(=O)(NC1c2cccc3cccc(c23)C1N1CCN(CCO)CC1)c1ccccc1 (stereo not drawn),"inconclusive: 29.1 µM [cytotoxic, single point]",
COc1ccccc1NC(=O)C1=C(C)Nc2nc(CCCO)nn2C1c1ccc2c(c1)OCO2 (stereo not drawn),"inconclusive: 11.6 µM [rising, partial curve, poor fit]",
COc1cccc(Oc2nc(-c3ccncc3)nc3ccccc23)c1,"inconclusive: 29.1 µM [cytotoxic, single point]",
CC(=O)Nc1ccccc1NC(=O)c1cccc2ccccc12,"inconclusive: 0.731 µM [cytotoxic, full curve]",
CC(C)c1ccc(NC(=O)c2cc(S(=O)(=O)NCC3COc4ccccc4O3)ccc2F)cc1 (stereo not drawn),"inconclusive: 23.1 µM [cytotoxic, partial curve, poor fit]",
O=c1cc(-c2ccc(Cl)cc2)[nH]c2ccccc12,"inconclusive: 29.1 µM [cytotoxic, single point]",
COc1cc(-c2nnc(SCC(=O)NCc3ccccc3Cl)o2)cc(OC)c1OC,inactive,
CCOC(=O)c1c(NC(=O)CC2Nc3ccccc3NC2=O)sc(C)c1C (stereo not drawn),inactive,
CCOC(=O)c1c[nH]c2c(Cl)c(Cl)ccc2c1=O,inactive,
Cc1cccc(NC(=O)C2CCN(S(=O)(=O)c3cccs3)CC2)c1,inactive,
O=C(OCc1cn([C@H]2C[C@H](c3ccc(Cl)cc3)N(C(=O)c3cccs3)C[C@@H]2O)nn1)c1ccccc1,inactive,
CSc1nc2cc(S(=O)(=O)N3CCOCC3)ccc2s1,"inconclusive: 16.4 µM [cytotoxic, partial curve, poor fit]",
Cn1c(=O)oc2cc(S(=O)(=O)CCC(=O)N3CCN(c4ccccc4)CC3)ccc21,,inconclusive: 23.9%
Cc1ccc(C2CC(c3ccc(NS(C)(=O)=O)cc3)=NN2C(=O)c2ccco2)cc1 (stereo not drawn),inactive,
COc1cccc(Oc2ccc(C(F)(F)F)cc2NC(=O)c2cccc(F)c2)c1,"inconclusive: 23.1 µM [cytotoxic, single point]",
O=C(Nc1ccc2ccccc2c1)Nc1nnc(-c2ccccn2)s1,"inconclusive: 32.6 µM [rising, single point]",

# Arranged by heavy-atom count (high to low): some entries from above.
Structure (SMILES),Potency,"activity change, negative = cytotoxic"
COc1cc(-c2nnc(SCC(=O)NCc3ccccc3Cl)o2)cc(OC)c1OC,inactive,
CC(C)C[C@H](NC(=O)N1CC(=O)Nc2ccccc21)C(=O)N1CCC[C@H]1C(=O)O,inactive,
CCCCn1c(O)c(N=NC(=O)c2ccncc2)c2cc(Br)ccc21,inactive,

# Continuation.

Structure (SMILES),Potency,"activity change, negative = cytotoxic"
Brc1ccc(Nc2ncnc3[nH]ncc23)cc1,"inconclusive: 14.6 µM [cytotoxic, partial curve]",
O=C(COc1ccccc1C(=O)Nc1ccccc1F)Nc1ccc(Br)cc1,"inconclusive: 0.0366 µM [rising, full curve, poor fit]",
Cc1ccc(Nc2nc(-c3c(C)nc4ncccn34)cs2)cc1,active: 0.0058 µM,
CC(=O)Nc1cccc(-c2ccnc3c2CC(C(=O)NCC2CC2)O3)c1 (stereo not drawn),"inconclusive: 29.1 µM [cytotoxic, single point]",
COc1ccc(CC(=O)N2CCc3ccccc3C2)cc1,"inconclusive: 32.6 µM [cytotoxic, single point]",
COC(=O)c1cc(N=Nc2sc(N)nc2C)cc(C(=O)OC)c1,"inconclusive: 18.4 µM [cytotoxic, single point]",
CCN1CCN(C(=O)c2ccc3c(Cl)c4c(nc3c2)CCCC4)CC1,inactive,
CCOc1cc(N2CCOCC2)c(OCC)cc1NC(=O)COc1cccc2cccnc12,"inconclusive: 18.4 µM [cytotoxic, partial curve, poor fit]",
COC(=O)[C@@]1(C)[C@H]2C(=O)N(Cc3ccccc3)C(=O)[C@H]2[C@H]2CN=C(SCc3ccc(Cl)cc3)N21,inactive,
O=C(CNC(=O)c1ccc2c(c1)OCO2)Nc1ncccc1O,inactive,
COC(=O)c1c(-c2ccc(Cl)cc2)noc1N1CCN(c2ccc(OC)cc2)CC1,inactive,
O=C(Cc1cccs1)N1CCN(S(=O)(=O)c2ccc(F)cc2)CC1,"inconclusive: 0.0291 µM [rising, full curve]",
CC(=O)c1ccc(Oc2cc(C)nc(-n3nc(C)cc3C)n2)cc1,active: 0.651 µM,
Cc1nc(N2CCN(c3ccccn3)CC2)c2c(C)c(C(=O)Nc3ccc(F)c(Cl)c3)sc2n1,"inconclusive: 16.4 µM [cytotoxic, single point]",
COc1ccccc1C=C(C(=O)c1ccccc1)c1ccccc1,"inconclusive: 29.1 µM [cytotoxic, single point]",
CCOC(=O)C(=Cc1ccc2c(c1)OCO2)c1ccccc1,inactive,
N#Cc1cccc(NC(=O)COC(=O)c2ccccc2C(=O)c2ccc(Cl)c([N+](=O)[O-])c2)c1,"inconclusive: 29.1 µM [cytotoxic, single point]",
CC(C)N(C(=O)N1CCC(c2nc(-c3ccncc3)no2)CC1)C(C)C,"inconclusive: 25.9 µM [cytotoxic, partial curve, poor fit]",
COCCNC(=O)c1c[nH]c2ccc(S(=O)(=O)N3CCc4ccccc43)cc2c1=O,"inconclusive: 2.31 µM [cytotoxic, full curve, poor fit]",
Cc1cc2nc(C3CCCCC3)c(Cc3cccc(F)c3)n2c(C)c1Br,"inconclusive: 29.1 µM [cytotoxic, single point]",
COc1ccccc1CNC(=O)c1ccc(N2CCCC2)c(NC(=O)NCc2ccccc2)c1,inactive,
Cc1cccc(-n2c(SCC(=O)N3CC(=O)Nc4ccccc43)nc3ccccc3c2=O)c1C,inactive,
CCOC(=O)c1cc2oc(C(c3nnnn3C3CCCCC3)N3CCOCC3)cc2[nH]1 (stereo not drawn),"inconclusive: 29.1 µM [cytotoxic, single point]",

Structure (SMILES),Potency,"activity change, negative = cytotoxic"
Cc1cc(-c2ccc(S(=O)(=O)N(C)c3ccc(C)c(C)c3)s2)on1,active: 13 µM,
CCC(C(=O)N1CCN(c2ccccc2)CC1)n1nc(C)n2c(cc3sccc32)c1=O (stereo not drawn),active: 18.4 µM,
O=C(COc1ccccc1F)OCc1cc(=O)n2nc(-c3cccs3)sc2n1,inactive,
CCN1C(=O)CC(C(C)C)N(C2CCCC2)c2nc(Nc3ccc(C(=O)NC4CCN(C)CC4)cc3OC)ncc21 (stereo not drawn),"inconclusive: 29.1 µM [cytotoxic, single point]",
CC(=O)NC1=NN(C(C)=O)C(C)(c2ccco2)S1 (stereo not drawn),"inconclusive: 29.1 µM [cytotoxic, single point]",
C[C@H](CO)N1C[C@H](C)[C@@H](CN(C)C(=O)Nc2ccccc2)Oc2c(NC(=O)Nc3ccc(C(F)(F)F)cc3)cccc2C1=O,"inconclusive: 29.1 µM [cytotoxic, single point]",
CC(/C=C1\SC(=S)N(CCC(=O)Nc2ccc(O)cc2)C1=O)=C\c1ccccc1,"inconclusive: 29.1 µM [cytotoxic, single point]",
Cc1ccc(-c2ccc(=O)n(Cc3cc(C)ccc3C)n2)cc1,inactive,
CCOC(=O)/C=c1/s/c(=C\c2c(OC)ccc3ccccc23)c(=O)n1CC(=O)NCC1CCCO1 (stereo not drawn),"inconclusive: 29.1 µM [cytotoxic, single point]",
Cc1ccc(C)c(NC(=O)c2ccc3c(c2)N(Cc2ccc(F)cc2)C(=O)CS3=O)c1 (stereo not drawn),"inconclusive: 0.206 µM [cytotoxic, full curve]",
CCC(CC)C(=O)NC1CC(=O)N(c2ccc3c(c2)OCCO3)C1 (stereo not drawn),inactive,
CN(C)c1ccc(C=C2c3ccccc3-c3ccccc32)cc1,"inconclusive: 32.6 µM [cytotoxic, partial curve, poor fit]",
CC(=O)Nc1ccc(S(=O)(=O)NCCC(=O)N2CCC(Cc3ccccc3)CC2)cc1,"inconclusive: 29.1 µM [cytotoxic, single point]",
c1ccc2c(c1)ncn2CCCCOc1ccc2c(c1)CCC2,"inconclusive: 20.6 µM [cytotoxic, single point]",
COc1ccc(OC)c(NC(=O)c2cc(-c3cc(Cl)ccc3O)n[nH]2)c1,"inconclusive: 29.1 µM [cytotoxic, single point]",
CC1Nc2ncnc(N3CCc4ccccc4C3)c2N(Cc2ccccc2)C1=O (stereo not drawn),inactive,
O=C1C(NS(=O)(=O)c2cccs2)=C(N2CCN(c3ccccc3)CC2)C(=O)c2ccccc21,"inconclusive: 29.1 µM [cytotoxic, single point]",
Cc1nc(-c2ccc(NC(=O)c3ccccc3C)cc2)cs1,,inconclusive: -4.54%
COc1ccc([C@H]2C[C@@H](n3cc(C4CC4)nn3)[C@H](O)CN2CC2CCCCC2)cc1,active: 16.4 µM,
CC(C)(C)OC(=O)NCCCC[C@H](NC(=O)c1nc[nH]c1C(=O)NC(c1ccccc1)c1ccccc1)C(=O)OC(C)(C)C,"inconclusive: 29.1 µM [cytotoxic, single point]",
CCOC(=O)c1cnc(SC)nc1Oc1cccc(NS(=O)(=O)c2ccc(Cl)cc2)c1,"inconclusive: 20.6 µM [cytotoxic, partial curve]",
O=C(Nc1cccc(Cl)c1)NC1CC2CCC1C2 (stereo not drawn),"inconclusive: 18.4 µM [cytotoxic, single point]",
